Measurements taken from patent publication US12528809B2, “Crystalline forms of gepotidacin” (GLAXOSMITHKLINE INTELLECTUAL PROPERTY DEVELOPMENT LIMITED, priority 2020, dated 2026).

Experiments:
[1] = Physical form stability / conversion to Form 1; assay type: physicochemical
Experimental: The suspension was heated with a heat gun to dissolve most of the solids, and then left to slowly cool to room temperature. The resultant crystals were filtered and analysed by DSC, TGA, and XRPD.
Amorphous gepotidacin mesylate can be generated via lyophilization. Form 1 (150 mg) was dissolved MeCN/water (80/20 v/v; 1 mL). A clarifying filtration was performed and the filtrate was added to a 20 mL vial. The solution was frozen under liquid nitrogen and lyophilized for 4 hours.

[2] = Polymorphs and water activity: forms observed in water/IPA mixtures; assay type: physicochemical; conditions: w/w water content in IPA, estimated using solubility and KF data

Row | Structure (SMILES) | time to convert to Form 1 ([1]; 5% aqueous IPA, 20° C.) [h] | conversion to Form 1 ([1]; in the suspension (3% Aq v/v IPA) and upon isolation) | water content boundaries within which the form was observed ([2]; 20-25° C.) [% w/w] | water content boundaries within which the form was observed ([2]; 61° C.) [% w/w]
1 | CC(C)O.CS(=O)(=O)O.O.O.O=c1ccc2ncc(=O)n3c2n1C[C@H]3CN1CCC(NCc2cc3c(cn2)OCCC3)CC1 | ≤ 3 | gradually convert to Form 1 |  | 
2 | CS(=O)(=O)O.O.O.O=c1ccc2ncc(=O)n3c2n1C[C@H]3CN1CCC(NCc2cc3c(cn2)OCCC3)CC1 [Gepotidacin mesylate anhydrate (Form 2)] |  |  | < 1.147 | < 2.694
